Measured values from patent US20040096392A1.
No constants are given. Whether binding was seen depends on the method and setting. Some results given as binding are weak or reduced against the parent protein; the word gives no strength.

Target: T1, TMEFF2 protein on the cell surface (PC3-TMEFF2 cells, LnCAP cells, cancer cell lines) (UniProt Q9UIK5)
T1 sequence (looked up): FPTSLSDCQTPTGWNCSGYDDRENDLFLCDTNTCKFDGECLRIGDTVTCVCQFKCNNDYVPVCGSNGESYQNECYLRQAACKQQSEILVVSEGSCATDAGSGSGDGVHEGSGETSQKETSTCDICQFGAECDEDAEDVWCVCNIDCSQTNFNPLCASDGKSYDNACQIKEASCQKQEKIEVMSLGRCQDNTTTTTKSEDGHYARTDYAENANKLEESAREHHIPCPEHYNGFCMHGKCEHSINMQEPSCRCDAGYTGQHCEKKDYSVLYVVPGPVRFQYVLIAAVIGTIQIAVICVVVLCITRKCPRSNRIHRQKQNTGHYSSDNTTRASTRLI
Experiment: FACS on cancer cell lines

B1: TMEFF2#19 (ATCC Accession No. PTA-4127) (antibody, V domains shown)
VH: DVQLQESGPGLVKPSQSLSLTCSVTGYSITSGYYWSWIRQFPGNKLEWMGFISYDGSNKYNPSLKNRISITRDTSENQFFLNLRSVTTEDTATYYCARGLRRGDYSMDYWGQGTSVTVSS
VL: DIVMTQSQKFMSTSVGDSVSITCKASQNVVTAVAWYRQKPGQSPKLLIYSASNRHTGVPDRFTGSGSGTDFTLTINNMQSEDLADYFCQQYSSYPFTFGGGTKLEIK
Which binding does the source give for B1 here?
Its binding is “binds”.
